In all, about 1,600 compounds went through this assay and about 20 (1%) were called active.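 How the source made its calls: active means ratio of uncleaved NAD to its breakdown product ADP-ribose above 4, meaning the enzyme was inhibited; inactive means the rest.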 The list shows a part of the results.

Amino acid sequences for entries named in this document (tags omitted). A change or cut given only in a name is not applied to a line headed by its entry.
UniProt Q6SZW1: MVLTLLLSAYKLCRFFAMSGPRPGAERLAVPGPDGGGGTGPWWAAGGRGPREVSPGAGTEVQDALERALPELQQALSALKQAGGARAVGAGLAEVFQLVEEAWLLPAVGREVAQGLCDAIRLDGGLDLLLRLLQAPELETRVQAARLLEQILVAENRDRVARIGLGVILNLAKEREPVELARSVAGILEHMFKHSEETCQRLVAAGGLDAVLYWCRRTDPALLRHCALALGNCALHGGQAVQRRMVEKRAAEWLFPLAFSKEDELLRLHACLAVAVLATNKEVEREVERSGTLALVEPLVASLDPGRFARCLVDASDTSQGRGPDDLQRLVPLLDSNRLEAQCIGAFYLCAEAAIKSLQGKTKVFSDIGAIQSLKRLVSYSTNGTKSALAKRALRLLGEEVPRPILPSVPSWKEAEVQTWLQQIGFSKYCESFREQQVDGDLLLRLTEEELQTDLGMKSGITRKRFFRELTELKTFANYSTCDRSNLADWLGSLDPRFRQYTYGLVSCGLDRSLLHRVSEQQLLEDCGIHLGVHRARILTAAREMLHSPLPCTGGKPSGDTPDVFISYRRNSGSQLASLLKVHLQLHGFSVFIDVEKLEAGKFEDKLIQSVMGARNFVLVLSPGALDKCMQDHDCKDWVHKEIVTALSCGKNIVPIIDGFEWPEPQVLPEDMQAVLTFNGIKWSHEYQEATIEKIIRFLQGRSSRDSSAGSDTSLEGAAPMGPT

In this assay the target is NAD(+) hydrolase SARM1 (Homo sapiens) (UniProt Q6SZW1). Kind of assay: inhibition of SAM-TIR NAD hydrolysis to ADPR – cell lysate, HPLC readout, primary screen (AID 1508615).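 Further: substrate NAD at 5 µM with 60 min at 37 °C.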 The settings on record: HEK293T SAM-TIR lysate, NAD/ADPR ratio by HPLC; at 5 µM; active compounds read high.
Regarding `O=C(c1ccc(O)cc1)c1ccc(C(=O)c2ccc(O)cc2)cc1`, the NAD/ADPR ratio is inactive: 3. Next, `Cc1cccc2c1c1ccc3c(c1n2C)C(=O)C=CC3=O`: active: 8.3. The value for `O=c1[nH]cc(I)cc1I` was inactive: 3.

Turning to `Cc1cc(=O)c2cc(C(=O)c3ccccc3)ccc2[nH]1`, the NAD/ADPR ratio is inactive: 3.

Take `O=C(Nc1ccc(Nc2ccncc2)cc1)c1ccc([N+](=O)[O-])cc1`: the NAD/ADPR ratio was inactive: 3. Next, `COc1ccc(NC2=CC(=S)NC(C)(C)C2)cc1`: inactive: 3; `CCOC(=O)Nc1csnn1`: inactive: 3. The value for `Cc1cc(NC(=O)Nc2cccc3ccccc23)no1` was inactive: 3. The value for `CCN(CC)CCNC(=O)c1ccc(NCN2C(=O)NC(c3ccccc3)(c3ccccc3)C2=O)cc1` was inactive: 3; that for `Cc1nc(SCC(=O)O)n[nH]1` was inactive: 3. `Cn1c(=O)c2c(nc(N3CCOCC3)n2C)n(C)c1=O`: the NAD/ADPR ratio is inactive: 3.

With `C=CC1CN2CCC1CC2C(O)c1ccnc2ccc(OC)cc12` (stereo not drawn), the NAD/ADPR ratio is inactive: 3. The value for `COc1cc(NC(C)=O)c2ncccc2c1NC(C)=O` was inactive: 3; that for `COc1ccc(Nc2cc(Cl)ccc2C(=O)O)cn1` was inactive: 3; that for `CCOC(=O)c1ccc2c(c1)NCc1cccc(OC)c1O2` was inactive: 3. For `COc1cc(OC)c2c(=O)cc(-c3cccnc3)oc2c1`, the NAD/ADPR ratio is inactive: 3. Next, `CN1CCC(=C(c2ccc(Cl)cc2)c2ccccn2)CC1`: inactive: 3. For `Cc1nn(-c2ccccc2)nc1C(=O)Nc1ccc2[nH]ncc2c1`, the NAD/ADPR ratio was inactive: 3. `O=C(C=C=Nc1ccccc1)C(=O)N=C=Cc1ccccc1`: the NAD/ADPR ratio was inactive: 3. The value for `Cc1ccc(C)c(-n2c(-c3ccc(Br)cc3)csc2=NC(=O)c2ccccc2F)c1` was inactive: 3; that for `O=C(Nc1ccc(F)cc1)OCCOc1ccc([N+](=O)[O-])cc1` was inactive: 3. Consider `COc1ccc(NC2=NC(C)(CO)CS2)cc1` (stereo not drawn), for which the NAD/ADPR ratio was inactive: 3.

`CCNc1ccccc1C(=O)O`: the NAD/ADPR ratio is inactive: 3. The value for `CC(C)(C)c1ccc(NS(=O)(=O)c2ccc(N)cc2)cc1` was inactive: 3; that for `NC(=O)CCC(C(=O)O)N1C(=O)c2ccc(O)cc2C1=O` (stereo not drawn) was inactive: 3; that for `Cc1ccc(N=Nc2ccc(C)cc2NC(=O)Nc2ccccc2F)cc1` was inactive: 3.

In the case of `COc1cc(NC(=O)CCl)ccc(=O)c1`, the NAD/ADPR ratio is inactive: 3. Take `CC(=O)Oc1ccc(OC(C)=O)c2c1CC1(C)OC1(C)C2` (stereo not drawn): the NAD/ADPR ratio was inactive: 3. Next, `Cc1[nH]c(=S)[nH]c(=O)c1Cc1c(O)ccc2ccccc12`: inactive: 3; `NC(=O)N/N=C1\CC2CC1C1C=CCC21` (stereo not drawn): inactive: 3. The value for `O=C(O)c1ccccc1-c1ccccc1C(=O)Nc1ccc2c(c1)[nH]c(=O)c1ccccc12` was inactive: 3. The value for `CCOC(=O)C(=O)C1C(=O)Nc2ccccc21` (stereo not drawn) was inactive: 3.

On to `c1ccc(-c2nc(-c3nccc4ccccc34)oc2-c2ccccc2)cc1`, for which the NAD/ADPR ratio was inactive: 3. Next, `O=C(OCC(O)COC(=O)c1cccnc1)c1cccnc1`: inactive: 3; `O=[N+]([O-])c1cccc(-c2nc3ccccc3s/c2=N/O)c1`: inactive: 3. The value for `Nc1ccc(Oc2ccc(N)c([N+](=O)[O-])c2)cc1[N+](=O)[O-]` was inactive: 3. The value for `Cc1ccc(NC(=S)NC(=O)c2ccccc2)cc1NC(=S)NC(=O)c1ccccc1` was inactive: 3. As for `O=[N+]([O-])c1ccccc1/C=C/C=N/N=C/c1ccccc1O`, the NAD/ADPR ratio is inactive: 3. The value for `O=C(O)C(Cc1ccccc1N(CCO)CCO)N1C(=O)c2ccccc2C1=O` (stereo not drawn) was inactive: 3; that for `Cc1nc(N)nc(Nc2ccc(C#N)cc2)c1Br` was inactive: 3. The value for `CCN(CC)Cc1cc2[nH]c3c4ccc(Cl)cc4ncc3c2cc1OC` was inactive: 3. The value for `O=C1c2ccccc2C(=O)N1c1ncn[nH]1` was inactive: 3; that for `CCCCN1C(=O)CC(C(=O)OCC)=C1C` was inactive: 3. Take `CN(C)S(=O)(=O)N1C(=O)c2ccccc2C1=O`: the NAD/ADPR ratio is inactive: 3. For the compound `CSc1ccc(NC(=O)Nc2cc(C)ccn2)cc1`, the NAD/ADPR ratio was inactive: 3. The value for `Nc1ccc(N=Nc2ccccc2)c2ccccc12` was inactive: 3. Next, `O=C(c1cccnc1)C1Cc2ccccc2C1=O` (stereo not drawn): inactive: 3. The value for `S=c1ncc2[nH]c(=S)[nH]c2[nH]1` was inactive: 3.
